## Results from one PubChem assay

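A cell-based FRET test of anthrax lethal toxin entry, tracked through the 460 nm emission signal; the cell line is not named here.
Each compound was tested as a concentration series from about 0.0005 to 40 µM.
The number is the fitted AC50 of the 460 nm signal alone; lower values mean a more potent effect. A falling signal goes with compounds filed as inhibitors or cytotoxic, a rising one with activators or fluorescent compounds (inferred from the filed classes).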

Values are in µM.
Common to all entries: measured here: 460 nm channel.
This is a side read-out of the assay, for part of the compounds, not drawn at random.
Potencies fitted to partial, single-point or poorly fitting curves are rough.
The first word of each remark tells which way the curve ran; it can be opposite to the aim of the assay.

Compound	AC50 (µM)	remark
COc1ccc(-n2c(=O)cnc3cnc(Oc4cccc(Cl)c4)nc32)cc1	12.59	falling, partial curve
COc1ccc(Oc2ncc3nc(-c4ccc(OC)cc4)c(=O)n(C)c3n2)cc1	19.95	rising, partial curve
Nc1nc(CSc2n[nH]c(-c3ccccc3)n2)nc(Nc2ccccc2)n1	12.59	falling, partial curve
C=C(C)C(=O)OCCCCCCCCCC	31.62	falling, single point
Cc1c(Cc2ccccc2)c(=O)oc2cc(OCc3nn[nH]n3)ccc12	10	rising, single point
CCOc1cccc(C(=O)Nc2nc(-c3ccc(S(=O)(=O)N4CCOCC4)cc3)cs2)c1	5.012	falling, single point
COc1cc(/C=C\C(=O)N2CCCCC2=O)cc(OC)c1OC	0.1585	rising, full curve
NS(=O)(=O)c1ccc(N=Nc2nc3[nH]c(=O)[nH]c(=O)c3[nH]2)cc1	5.012	falling, single point
CCC(=O)/C=C1\Sc2ccc(OC)cc2N1CCO	0.1259	rising, full curve, poor fit
COC(=O)Nc1nc2ccc(C(=O)c3cccs3)cc2[nH]1	1.259	falling, full curve
C=CCn1c(SCCCCCC)nc(O)cc1=O	0.1	falling, full curve, poor fit
CS(=O)(=O)N(CC(=O)Nc1cccnc1)c1ccc2c(c1)OCCO2	5.012	falling, single point
CN(C)c1ncc2nc(-c3ccc(F)cc3)c(=O)n(C)c2n1	12.59	rising, partial curve
CC1CCN(CCC(=O)N2CCCc3c2c(=O)oc2ccc(O)cc32)CC1	10	falling, partial curve
Cc1cccc(N2CCN(C(=O)C3CCCN(S(=O)(=O)c4cccc5cccnc45)C3)CC2)c1C (stereo not shown)	3.162	falling, partial curve
CN(C)c1ccc(N=NS(=O)(=O)O)cc1	25.12	falling, partial curve
O=C1O[C@H]([C@@H](O)CO)C(O)=C1O	2.512	falling, single point
C=C[C@@](C)(O)CC[C@H]1[C@]2(C)CCCC(C)(C)[C@H]2CC[C@]1(C)O	12.59	falling, partial curve, poor fit
Cc1cnc(CNc2ccnc(-c3cccc(C#N)c3)n2)cn1	5.012	falling, single point
Cc1cc(NS(=O)(=O)c2ccccc2)c(C)c(Cl)c1O	31.62	falling, single point
O=C(O)[C@H](Cc1ccccc1)N1C(=O)c2ccncc2C1=O	25.12	rising, single point
COc1cccc(-c2cc(C(=O)Nc3c(C)nn(Cc4ccccc4)c3C)no2)c1	15.85	falling, single point
Cn1cc(-c2nc3cnc(Oc4cccc(Cl)c4)nc3n(CCC#N)c2=O)c2ccccc21	1.585	rising, full curve
O=c1c(O)c(-c2ccc(O)c(O)c2)oc2cc(O)cc(O)c12	10	falling, full curve, poor fit
Cc1ccc2[nH]c(C(=O)O)c(NC(=O)CN3CCN(c4cccc(C)c4C)CC3)c2c1	10	falling, partial curve, poor fit
CCOc1ccc(-c2nc(CSCC(=O)N3CCN(c4cccc(OC)c4)CC3)c(C)o2)cc1	31.62	falling, single point
Cc1cc(C)n2nc(SCC(=O)NCc3ccco3)nc2n1	0.007943	rising, full curve, poor fit
Cn1c(=O)oc2cc(S(=O)(=O)N3CCCC(C(=O)N4CCc5ccccc5C4)C3)ccc21 (stereo not shown)	31.62	falling, single point
Cc1cc(C)nc(N2CCC(C(=O)Nc3ccc4c(c3)CCC4)CC2)n1	5.012	rising, single point
CCCc1c(C(=O)OCC)[nH]c2c1C(=O)CCC2	12.59	rising, partial curve
CCCn1c(CCC(=O)O)ccc1-c1cccs1	1.585	rising, partial curve
O=S(=O)(c1cccs1)N1CCN(CC(O)COc2cc(Cl)ccc2Cl)CC1 (stereo not shown)	3.981	falling, partial curve
O=c1c(-c2ccc(Cl)cc2)nc2cnc(Nc3ccccc3)nc2n1C1CC1	12.59	rising, partial curve
O=C(c1csc2ccccc12)n1cccn1	5.012	rising, single point
N#Cc1cc(N)c(Nc2ccccc2)cc1C#N	10	rising, single point
Cc1nn(-c2nc3ccccc3s2)c(N)c1-c1ccccc1	7.943	falling, partial curve
C[C@H]1CC[C@@H]2[C@@H](C)[C@H]3[C@H](C[C@H]4[C@@H]5CC=C6CC(O[C@@H]7O[C@H](CO)[C@H](O)[C@H](O[C@@H]8O[C@H](CO)[C@@H](O)[C@H](O)[C@H]8O)[C@H]7O[C@H]7O[C@@H](C)[C@H](O)[C@@H](O)[C@H]7O)CC[C@]6(C)[C@H]5CC[C@]34C)N2C1 (stereo partly shown)	25.12	falling, partial curve
Cc1cccc(N=C2NC(=O)/C(=C3/C(=O)N(C)c4ccccc43)S2)c1C	12.59	falling, partial curve
C[C@H](CCC(=O)O)[C@H]1CC[C@@H]2[C@H]3CC[C@H]4C[C@@H](O)CC[C@@]4(C)[C@H]3CC[C@]21C	5.012	rising, partial curve
O=C(COc1ccc(S(=O)(=O)NC2CCCCC2)cc1)Nc1ccc2c(c1)OCCO2	5.012	falling, partial curve
Cc1nc2nc(SCC(=O)C(C)(C)C)[nH]c2cc1Br	10	rising, single point
Cc1cc(S(=O)(=O)N2CCN(c3ccc(F)cc3)CC2)c(C)s1	3.162	falling, partial curve
CCOC(=O)[C@H](CCc1ccccc1)N[C@@H](C)C(=O)N1CCC[C@H]1C(=O)O	0.05012	rising, full curve, poor fit
COc1ccc(-c2nc3cnc(OC)nc3n(Cc3ccc(F)cc3)c2=O)cc1	3.981	rising, full curve
CCNc1ncc2nc(-c3cn(C)c4ccccc34)c(=O)n(C)c2n1	5.012	rising, partial curve
OC(CN1C2=NCCCN2c2ccccc21)c1ccc(Cl)cc1 (stereo not shown)	12.59	falling, partial curve
COc1ccc(S(=O)(=O)NCC(c2cccnc2)N2CCN(c3ccc(F)cc3)CC2)cc1C (stereo not shown)	12.59	rising, single point
C=CCn1c(-c2cccs2)nc2nc3ccccc3nc21	10	rising, partial curve
COc1ccc(Br)cc1CN1CCN(CCO)CC1	10	falling, partial curve
O=C(CSc1nnnn1-c1ccc2c(c1)OCCO2)OC1CCCCC1	25.12	rising, single point
CCOC(=O)Cc1c(C)c2ccc(N(CC)CC)cc2oc1=O	12.59	rising, partial curve
COC(=O)c1ccc2c(c1)NC(=O)C1CCCN21 (stereo not shown)	15.85	falling, single point
COc1cccc(Cn2c(=O)c(-c3cccs3)nc3cnc(Nc4cccc(OC)c4)nc32)c1	0.5012	rising, full curve
CC1=C(C(=O)Nc2ccccc2)C(c2ccc(N(C)C)cc2)NC(=O)N1 (stereo not shown)	1.259	rising, partial curve
Cc1nc(-c2ccc(-c3ccc(C(=O)N4CCc5cc6c(cc54)C4(CCN(C)CC4)CO6)cc3)c(C)c2)no1	15.85	falling, partial curve

The last 4 entries again:

| Compound | AC50 (µM) | remark |
|---|---|---|
| `COC(=O)c1ccc2c(c1)NC(=O)C1CCCN21` (stereo not shown) | 15.85 | falling, single point |
| `COc1cccc(Cn2c(=O)c(-c3cccs3)nc3cnc(Nc4cccc(OC)c4)nc32)c1` | 0.5012 | rising, full curve |
| `CC1=C(C(=O)Nc2ccccc2)C(c2ccc(N(C)C)cc2)NC(=O)N1` (stereo not shown) | 1.259 | rising, partial curve |
| `Cc1nc(-c2ccc(-c3ccc(C(=O)N4CCc5cc6c(cc54)C4(CCN(C)CC4)CO6)cc3)c(C)c2)no1` | 15.85 | falling, partial curve |

Data taken from PubChem BioAssay AID912, deposited by NCATS (2007).